These are yes or no findings as the source states them, for the method shown. Binding seen in cells or lysates may run through a third protein. These calls come from enrichment with a bait or labelling near it, and not all partners need be listed. Tags and fused reporters may be left off the sequences shown.
T1: Cex1-HA (S. cerevisiae) (UniProt Q12453)
T1 sequence: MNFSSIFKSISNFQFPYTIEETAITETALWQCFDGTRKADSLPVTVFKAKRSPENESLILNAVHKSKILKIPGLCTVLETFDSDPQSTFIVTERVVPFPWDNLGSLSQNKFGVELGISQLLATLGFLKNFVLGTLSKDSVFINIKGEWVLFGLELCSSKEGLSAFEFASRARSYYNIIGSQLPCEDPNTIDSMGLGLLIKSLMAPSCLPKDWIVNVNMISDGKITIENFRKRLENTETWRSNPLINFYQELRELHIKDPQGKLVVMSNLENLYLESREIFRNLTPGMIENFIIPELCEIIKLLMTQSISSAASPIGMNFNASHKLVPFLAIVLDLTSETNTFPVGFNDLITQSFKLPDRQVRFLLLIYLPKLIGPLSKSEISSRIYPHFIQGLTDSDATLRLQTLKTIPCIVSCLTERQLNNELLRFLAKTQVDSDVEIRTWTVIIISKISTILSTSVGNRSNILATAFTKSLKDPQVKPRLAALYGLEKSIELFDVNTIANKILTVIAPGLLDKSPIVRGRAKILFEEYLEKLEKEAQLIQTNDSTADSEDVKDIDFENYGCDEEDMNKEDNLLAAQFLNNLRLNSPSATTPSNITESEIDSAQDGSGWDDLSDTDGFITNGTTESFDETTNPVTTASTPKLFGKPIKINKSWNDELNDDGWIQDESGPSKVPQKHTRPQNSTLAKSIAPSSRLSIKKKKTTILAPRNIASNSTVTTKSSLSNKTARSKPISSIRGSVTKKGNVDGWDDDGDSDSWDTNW

By UniProt entry, the sequences of proteins in these tests, tags left out.
UniProt Q02455: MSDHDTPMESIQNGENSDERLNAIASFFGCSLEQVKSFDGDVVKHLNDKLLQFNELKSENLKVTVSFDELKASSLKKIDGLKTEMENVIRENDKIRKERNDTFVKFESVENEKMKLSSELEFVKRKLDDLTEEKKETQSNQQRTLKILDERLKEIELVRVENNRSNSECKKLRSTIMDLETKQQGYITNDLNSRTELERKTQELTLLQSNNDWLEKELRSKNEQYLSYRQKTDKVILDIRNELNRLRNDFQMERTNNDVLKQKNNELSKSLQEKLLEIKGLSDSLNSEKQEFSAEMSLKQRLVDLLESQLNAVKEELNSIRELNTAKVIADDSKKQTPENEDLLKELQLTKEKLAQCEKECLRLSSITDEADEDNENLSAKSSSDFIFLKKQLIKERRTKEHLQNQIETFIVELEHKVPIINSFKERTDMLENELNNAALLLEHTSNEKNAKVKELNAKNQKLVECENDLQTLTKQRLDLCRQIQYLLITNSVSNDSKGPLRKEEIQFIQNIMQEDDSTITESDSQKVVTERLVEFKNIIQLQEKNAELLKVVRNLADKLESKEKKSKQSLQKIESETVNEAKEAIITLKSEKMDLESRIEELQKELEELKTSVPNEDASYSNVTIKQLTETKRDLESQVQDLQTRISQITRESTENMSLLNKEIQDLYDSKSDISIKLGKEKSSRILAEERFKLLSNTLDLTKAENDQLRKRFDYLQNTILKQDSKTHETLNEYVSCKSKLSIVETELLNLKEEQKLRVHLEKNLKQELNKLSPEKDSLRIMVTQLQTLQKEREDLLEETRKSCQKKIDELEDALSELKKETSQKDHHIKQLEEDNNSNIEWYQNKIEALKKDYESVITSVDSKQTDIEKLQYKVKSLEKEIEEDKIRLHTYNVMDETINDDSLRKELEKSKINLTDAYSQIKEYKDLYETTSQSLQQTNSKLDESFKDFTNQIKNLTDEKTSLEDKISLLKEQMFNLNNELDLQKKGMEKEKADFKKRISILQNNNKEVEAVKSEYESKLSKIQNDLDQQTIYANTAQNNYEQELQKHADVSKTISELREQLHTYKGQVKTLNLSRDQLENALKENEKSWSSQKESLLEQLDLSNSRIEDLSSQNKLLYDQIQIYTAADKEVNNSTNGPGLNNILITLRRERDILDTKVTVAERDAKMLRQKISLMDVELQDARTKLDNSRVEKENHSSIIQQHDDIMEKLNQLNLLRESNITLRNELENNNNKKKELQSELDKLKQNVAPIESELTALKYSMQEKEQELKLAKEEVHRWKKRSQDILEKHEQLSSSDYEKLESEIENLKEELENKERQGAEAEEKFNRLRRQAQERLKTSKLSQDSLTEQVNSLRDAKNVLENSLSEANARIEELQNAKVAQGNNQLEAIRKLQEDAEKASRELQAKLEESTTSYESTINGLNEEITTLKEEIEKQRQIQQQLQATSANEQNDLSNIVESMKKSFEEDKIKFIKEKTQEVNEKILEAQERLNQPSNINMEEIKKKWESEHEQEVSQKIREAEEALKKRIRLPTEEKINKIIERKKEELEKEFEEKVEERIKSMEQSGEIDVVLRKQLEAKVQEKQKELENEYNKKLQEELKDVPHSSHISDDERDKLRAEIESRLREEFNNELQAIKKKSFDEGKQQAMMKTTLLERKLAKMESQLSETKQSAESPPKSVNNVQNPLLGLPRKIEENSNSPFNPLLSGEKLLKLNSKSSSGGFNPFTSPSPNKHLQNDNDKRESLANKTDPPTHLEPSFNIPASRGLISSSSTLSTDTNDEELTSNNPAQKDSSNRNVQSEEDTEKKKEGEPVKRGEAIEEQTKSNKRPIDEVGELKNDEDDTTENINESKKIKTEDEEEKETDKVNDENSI

B1: Sec21 (γ-COP) (protein, UniProt P32074 1-935)
chain: MSAHTYKKFENSTSGDLPDKMTIYQDCMNTFNESPVNSKRCRLLISRLLRLLAQGETFPQNEATALFFSISKLFQHQNDPLRQAVYLAIKELSGISEDVLMATSSIMKDVQNGSDLIKPDAIRSLTYVLDESTAFSAERLLKSAVVSRHPSISSAALCTSYHLLPISEVTIRRFTNETQEAVLDLKQFPNQHGNSEYYPNSTYISQYHALGLLYQLKKTDKMALLKLVRHFSENNSMKNQLAKVELVKIVNDLIYRDPQLFSQFRPLLSDWLSNKFESVQLETAKLITSFATRNSRLVAPELYAAAISALQSLLTVPRVSSRFAALRILNRISMVSPEKIVVCNPELESLINDSNRNISTYAITTLLKTGTSKNISSLISTITNFIHDVSDDFKIIIIDAVRTLSLNFPQEWKSILNFLIDVLKNSEGGFKFKNSIVEALIDIVSFVPQSKELALENLCDFIEDCEFNEILVRILHLLGKEGPSAPNPSLYVRHIYNRVVLENSIIRSAAVVALSKFALTKNDPTLYESIISLLKRIANDKDDEVRDRATIALEFIDSARNKDDVIAQNLIESKYFYDIPSLESKLSSYISSNTDSFATAFDVNQVRKFTEDEMKAINLKRKQEQIFNQKSETTLDTTPEAESVPEKRADANSFAGPNLDDHQEDLLATKYADELLSIEQIKPFGQLVNSSRAISLTEPEAEFVVRGVKHLFKDNVVLQFNITNTLTDIALDNVSVVCTPEISDEAELEELFTLQVDRLLPSEEAACYVAFKKLDEIVMEGFLNNLTFTTKEINPDTNEPFDGDEGFQDEYEIDSIFLNAGDYVKSSFTGNFSATFDELPCEEVAVFNIQEDLSIQEVVDKIILNSSCLPVESTQFAPSDSNSHTLKLFGKSALTGSKVALQIKMIKSSKGLALKVHGKGEDSLLCSDLVNGLMQ
B2: Sec33 (α-COP) (protein, UniProt P53622 1-1201)
chain: MKMLTKFESKSTRAKGIAFHPSRPWVLVALFSSTIQLWDYRMGTLLHRFEDHEGPVRGLDFHPTQPIFVSAGDDYTIKVWSLDTNKCLYTLTGHLDYVRTVFFHRELPWIISASDDQTIRIWNWQNRKEIACLTGHNHFVMCAQFHPTDDLIVSASLDETIRIWDISGLRKRHSAPGTSSFEEQMSAQQNLLDGSLGDCVVKFILEGHTRGVNWASFHPTLPLIVSGSDDRQVKLWRMSATKAWEVDTCRGHTNNVDSVIFHPHQNLIISVGEDKTLRVWDLDKRTPVKQFKRENDRFWLIAAHPHINLFGAAHDSGIMVFKLDRERPCSFIHQNQLFFVNAEKQIQSFNFQKRVASLPYASLKGIGQPWDAFRSISYNPSQHSVLVNEANGKFALVILPKQPVGAVEPTSVTQDTGNFATFVGRNRFVVYNKNTESVEVRSLENKVTRNIKVEETVRTIVAAGPGSVLVIHPREVILYDVQQGKKVSQLAVKNVKYVSWSLDGQYVALMSKHTITLATKKLELINSMHETIRIKSAAWDETGVLIYSTLNHIRYSLLNGDRGIIKTLEKTLYITKVQGKLVYCLNREGEIEILTIDPTEYRFKKALVNKNFPEVLRLIKDSNLVGQNIISYLQKSGYPEIALQFVQDPHIRFDLALEYGNLDVALDEAKKLNDSSTWERLIQEALAQGNASLAEMIYQTQHSFDKLSFLYLVTGDVNKLSKMQNIAQTREDFGSMLLNTFYNNSTKERSSIFAEGGSLPLAYAVAKANGDEAAASAFLEQAEVDEQDVTLPDQMDASNFVQRPVISKPLEKWPLKEAELSYFEKAVLGQIDDLTIDDETPAVNTTQEQEEPLGEENFNDEDIGEDEGAWDLGDEDLDVGEELPEEVEQGEITSPAQEVETAIWIKNSKLPAVLVAAGAFDAAVQALSKQVGVVKLEPLKKYFTNIYEGCRTYIPSTPCELPAQLGYVRAYDDTVSEDQILPYVPGLDVVNEKMNEGYKNFKLNKPDIAIECFREAIYRITLLMVDDAEDEKLAHKILETAREYILGLSIELERRSLKEGNTVRMLELAAYFTKAKLSPIHRTNALQVAMSQHFKHKNFLQASYFAGEFLKIISSGPRAEQARKIKNKADSMASDAIPIDFDPYAKFDICAATYKPIYEDTPSVSDPLTGSKYVITEKDKIDRIAMISKIGAPASGLRIRV
B3: Sec28 (ε-COP) (protein, UniProt P40509 1-296)
chain: MDYFNIKQNYYTGNFVQCLQEIEKFSKVTDNTLLFYKAKTLLALGQYQSQDPTSKLGKVLDLYVQFLDTKNIEELENLLKDKQNSPYELYLLATAQAILGDLDKSLETCVEGIDNDEAEGTTELLLLAIEVALLNNNVSTASTIFDNYTNAIEDTVSGDNEMILNLAESYIKFATNKETATSNFYYYEELSQTFPTWKTQLGLLNLHLQQRNIAEAQGIVELLLSDYYSVEQKENAVLYKPTFLANQITLALMQGLDTEDLTNQLVKLDHEHAFIKHHQEIDAKFDELVRKYDTSN
B4: Sec27 (β′-COP), endogenous (protein, UniProt P41811 1-889)
chain: MKLDIKKTFSNRSDRVKGIDFHPTEPWVLTTLYSGRVELWNYETQVEVRSIQVTETPVRAGKFIARKNWIIVGSDDFRIRVFNYNTGEKVVDFEAHPDYIRSIAVHPTKPYVLSGSDDLTVKLWNWENNWALEQTFEGHEHFVMCVAFNPKDPSTFASGCLDRTVKVWSLGQSTPNFTLTTGQERGVNYVDYYPLPDKPYMITASDDLTIKIWDYQTKSCVATLEGHMSNVSFAVFHPTLPIIISGSEDGTLKIWNSSTYKVEKTLNVGLERSWCIATHPTGRKNYIASGFDNGFTVLSLGNDEPTLSLDPVGKLVWSGGKNAAASDIFTAVIRGNEEVEQDEPLSLQTKELGSVDVFPQSLAHSPNGRFVTVVGDGEYVIYTALAWRNKAFGKCQDFVWGPDSNSYALIDETGQIKYYKNFKEVTSWSVPMHSAIDRLFSGALLGVKSDGFVYFFDWDNGTLVRRIDVNAKDVIWSDNGELVMIVNTNSNGDEASGYTLLFNKDAYLEAANNGNIDDSEGVDEAFDVLYELSESITSGKWVGDVFIFTTATNRLNYFVGGKTYNLAHYTKEMYLLGYLARDNKVYLADREVHVYGYEISLEVLEFQTLTLRGEIEEAIENVLPNVEGKDSLTKIARFLEGQEYYEEALNISPDQDQKFELALKVGQLTLARDLLTDESAEMKWRALGDASLQRFNFKLAVEAFTNAHDLESLFLLHSSFNNKEGLVTLAKDAERAGKFNLAFNAYWIAGDIQGAKDLLIKSQRFSEAAFLGSTYGLGDDAVNDIVTKWKENLILNGKNTVSERVCGAEGLPGSSSSGDAQPLIDLDSTPAPEQADENKEAEVEDSEFKESNSEAVEAEKKEEEAPQQQQSEQQPEQGEAVPEPVEEES
B5: Bat2 (protein, UniProt P47176 1-376)
chain: MTLAPLDASKVKITTTQHASKPKPNSELVFGKSFTDHMLTAEWTAEKGWGTPEIKPYQNLSLDPSAVVFHYAFELFEGMKAYRTVDNKITMFRPDMNMKRMNKSAQRICLPTFDPEELITLIGKLIQQDKCLVPEGKGYSLYIRPTLIGTTAGLGVSTPDRALLYVICCPVGPYYKTGFKAVRLEATDYATRAWPGGCGDKKLGANYAPCVLPQLQAASRGYQQNLWLFGPNNNITEVGTMNAFFVFKDSKTGKKELVTAPLDGTILEGVTRDSILNLAKERLEPSEWTISERYFTIGEVTERSKNGELLEAFGSGTAAIVSPIKEIGWKGEQINIPLLPGEQTGPLAKEVAQWINGIQYGETEHGNWSRVVTDLN
B6: Tps1 (protein, UniProt Q00764 1-495)
chain: MTTDNAKAQLTSSSGGNIIVVSNRLPVTITKNSSTGQYEYAMSSGGLVTALEGLKKTYTFKWFGWPGLEIPDDEKDQVRKDLLEKFNAVPIFLSDEIADLHYNGFSNSILWPLFHYHPGEINFDENAWLAYNEANQTFTNEIAKTMNHNDLIWVHDYHLMLVPEMLRVKIHEKQLQNVKVGWFLHTPFPSSEIYRILPVRQEILKGVLSCDLVGFHTYDYARHFLSSVQRVLNVNTLPNGVEYQGRFVNVGAFPIGIDVDKFTDGLKKESVQKRIQQLKETFKGCKIIVGVDRLDYIKGVPQKLHAMEVFLNEHPEWRGKVVLVQVAVPSRGDVEEYQYLRSVVNELVGRINGQFGTVEFVPIHFMHKSIPFEELISLYAVSDVCLVSSTRDGMNLVSYEYIACQEEKKGSLILSEFTGAAQSLNGAIIVNPWNTDDLSDAINEALTLPDVKKEVNWEKLYKYISKYTSAFWGENFVHELYSTSSSSTSSSATKN
B7: Sec26 (β-COP) (protein, UniProt P41810 1-973)
chain: MTSLSSQPAYTLVFDPSPSMETYSSTDFQKALEKGSDEQKIDTMKSILVTMLEGNPMPELLMHIIRFVMPSKNKELKKLLYFYWEIVPKLAEDGKLRHEMILVCNAIQHDLQHPNEYIRGNTLRFLTKLREAELLEQMVPSVLACLEYRHAYVRKYAILAVFSIFKVSEHLLPDAKEIINSFIVAETDPICKRNAFIGLAELDRENALHYLENNIADIENLDPLLQAVFVQFIRQDANRTPALKAQYIELLMELLSTTTSDEVIFETALALTVLSANPNVLVPAVNKLIDLAVKVSDNNIKLIVLDRIQDINANNVGALEELTLDILRVLNAEDLDVRSKALDISMDLATSRNAEDVVQLLKKELQTTVNNPDQDKAMQYRQLLIKTIRTVAVNFVEMAASVVSLLLDFIGDLNSVAASGIIAFIKEVIEKYPQLRANILENMVQTLDKVRSAKAYRGALWIMGEYAEGESEIQHCWKHIRNSVGEVPILQSEIKKLTQNQEHTEENEVDATAKPTGPVILPDGTYATESAFDVKTSQKSVTDEERDSRPPIRRFVLSGDFYTAAILANTIIKLVLKFENVSKNKTVINALKAEALLILVSIVRVGQSSLVEKKIDEDSLERVMTSISILLDEVNPEEKKEEVKLLEVAFLDTTKSSFKRQIEIAKKNKHKRALKDSCKNIEPIDTPISFRQFAGVDSTNVQKDSIEEDLQLAMKGDAIHATSSSSISKLKKIVPLCGFSDPVYAEACITNNQFDVVLDVLLVNQTKETLKNLHVQFATLGDLKIIDTPQKTNVIPHGFHKFTVTVKVSSADTGVIFGNIIYDGAHGEDARYVILNDVHVDIMDYIKPATADDEHFRTMWNAFEWENKISVKSQLPTLHAYLRELVKGTNMGILTPSESLGEDDCRFLSCNLYAKSSFGEDALANLCIEKDSKTNDVIGYVRIRSKGQGLALSLGDRVALIAKKTNKLALTHV

The molecules below were run against T1, Cex1-HA (S. cerevisiae) (assay: affinity purification with mass spectrometry; Cex1-HA as bait on magnetic anti-HA MicroBeads, MYC-beads as control; lysate in 0.33% NP40, 50 mM Tris-HCl pH8, 50 mM NaCl, 1 mM PMSF; 30 min on ice; three independent IPs; nano-LC-MS/MS).

binding, binds:
Epo1, Mlp1 (from UniProt Q02455 1-1875), B1, B2, B3, B4, B5, B6, B7
